Reference: patent publication US20100291160A1, “PHARMACEUTICAL SYSTEM FOR TRANS-MEMBRANE DELIVERY” (priority 2009, published 2010)
Counter-ions that a name gives are not always drawn.

Experiment: in vitro diffusion of formulation across membrane mounted on vial
Conditions: pH found to produce rapid diffusion across the membrane; pH adjusted with sodium bicarbonate or citric acid

CN1[C@@H]2CC[C@H]1C[C@@H](OC(=O)C(CO)c1ccccc1)C2 (stereo partly shown) [Atropine sulfate]
Optimal pH Conditions with Experimental Formulation: pH 6.5 to 5.0
